System: zebrafish
Assay: survival rate of zebrafish (PTU35h embryos, drugs alone or in combination)
Conditions: Danio rerio, 25 h, read-out: IC50 (survival rate of zebrafish)

## CNCCC(Oc1ccc(C(F)(F)F)cc1)c1ccccc1 (racemic) [fluoxetine]
  IC50: 89.7 µg/mL

Source: patent US20220249404A1, “COMPOSITION CONTAINING FLUOXETINE AND VITAMIN D3 OR ITS DERIVATIVES, AND APPLICATION THEREOF” (Nanjing Ruiying Runze Biopharmaceutical Technology Co., Inc., priority 2019, published 2022)
